Results are given in words; binding and its absence hold for the method and conditions named. In cells and extracts the contact can be indirect. A yes stands for co-enrichment or nearness to the bait. Other partners may have been found.

Sequences of proteins named here, by UniProt entry; tags and fusion partners are left off.
UniProt Q99684: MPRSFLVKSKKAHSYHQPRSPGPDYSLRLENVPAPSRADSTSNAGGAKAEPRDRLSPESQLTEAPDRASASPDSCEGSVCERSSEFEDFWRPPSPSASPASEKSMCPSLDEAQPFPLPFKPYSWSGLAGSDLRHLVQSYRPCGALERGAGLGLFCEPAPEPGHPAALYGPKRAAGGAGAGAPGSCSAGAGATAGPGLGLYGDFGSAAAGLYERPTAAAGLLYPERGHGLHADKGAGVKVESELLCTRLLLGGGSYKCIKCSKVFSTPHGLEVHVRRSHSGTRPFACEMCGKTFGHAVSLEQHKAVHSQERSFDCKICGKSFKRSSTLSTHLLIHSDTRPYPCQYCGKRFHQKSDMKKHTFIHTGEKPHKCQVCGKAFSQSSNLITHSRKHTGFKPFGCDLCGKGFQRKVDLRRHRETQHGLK
UniProt Q92769: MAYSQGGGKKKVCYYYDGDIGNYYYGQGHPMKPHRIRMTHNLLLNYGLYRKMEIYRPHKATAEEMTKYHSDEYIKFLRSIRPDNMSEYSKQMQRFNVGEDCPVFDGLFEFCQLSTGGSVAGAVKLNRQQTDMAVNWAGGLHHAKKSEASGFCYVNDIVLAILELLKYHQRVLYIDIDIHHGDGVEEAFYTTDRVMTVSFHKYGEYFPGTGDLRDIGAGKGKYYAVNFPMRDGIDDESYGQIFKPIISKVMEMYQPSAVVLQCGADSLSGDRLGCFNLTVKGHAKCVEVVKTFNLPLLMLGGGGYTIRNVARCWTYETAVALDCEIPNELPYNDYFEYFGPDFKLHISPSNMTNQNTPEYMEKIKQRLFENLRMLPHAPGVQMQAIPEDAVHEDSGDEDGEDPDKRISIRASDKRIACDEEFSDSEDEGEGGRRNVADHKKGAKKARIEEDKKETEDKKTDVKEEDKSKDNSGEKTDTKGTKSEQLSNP
UniProt Q9UKL0: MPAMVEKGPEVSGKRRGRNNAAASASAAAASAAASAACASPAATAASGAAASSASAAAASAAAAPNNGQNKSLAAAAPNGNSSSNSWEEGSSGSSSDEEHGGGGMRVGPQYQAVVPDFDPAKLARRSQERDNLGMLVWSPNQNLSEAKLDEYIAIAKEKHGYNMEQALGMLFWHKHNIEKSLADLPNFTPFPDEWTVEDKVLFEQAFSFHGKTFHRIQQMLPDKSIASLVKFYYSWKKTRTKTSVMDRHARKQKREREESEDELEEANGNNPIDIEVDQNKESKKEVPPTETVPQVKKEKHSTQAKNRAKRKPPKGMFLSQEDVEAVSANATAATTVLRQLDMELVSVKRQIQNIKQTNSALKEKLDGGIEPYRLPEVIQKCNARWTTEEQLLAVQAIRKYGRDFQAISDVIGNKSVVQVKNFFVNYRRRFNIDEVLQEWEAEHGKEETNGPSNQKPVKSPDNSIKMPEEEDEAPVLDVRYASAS
UniProt Q13547: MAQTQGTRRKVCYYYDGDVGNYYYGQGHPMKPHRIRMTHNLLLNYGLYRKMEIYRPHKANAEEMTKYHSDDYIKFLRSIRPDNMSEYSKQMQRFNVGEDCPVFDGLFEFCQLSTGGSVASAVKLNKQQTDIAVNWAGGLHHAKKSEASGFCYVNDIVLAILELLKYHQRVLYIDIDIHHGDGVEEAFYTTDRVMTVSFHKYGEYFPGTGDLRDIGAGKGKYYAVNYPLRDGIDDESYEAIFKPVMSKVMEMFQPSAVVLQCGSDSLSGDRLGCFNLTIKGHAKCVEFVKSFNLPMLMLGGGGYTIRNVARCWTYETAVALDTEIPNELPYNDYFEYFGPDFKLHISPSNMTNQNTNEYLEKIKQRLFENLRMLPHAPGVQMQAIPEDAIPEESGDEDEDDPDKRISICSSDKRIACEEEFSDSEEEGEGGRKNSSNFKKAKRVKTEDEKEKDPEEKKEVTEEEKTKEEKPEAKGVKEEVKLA
UniProt Q92878: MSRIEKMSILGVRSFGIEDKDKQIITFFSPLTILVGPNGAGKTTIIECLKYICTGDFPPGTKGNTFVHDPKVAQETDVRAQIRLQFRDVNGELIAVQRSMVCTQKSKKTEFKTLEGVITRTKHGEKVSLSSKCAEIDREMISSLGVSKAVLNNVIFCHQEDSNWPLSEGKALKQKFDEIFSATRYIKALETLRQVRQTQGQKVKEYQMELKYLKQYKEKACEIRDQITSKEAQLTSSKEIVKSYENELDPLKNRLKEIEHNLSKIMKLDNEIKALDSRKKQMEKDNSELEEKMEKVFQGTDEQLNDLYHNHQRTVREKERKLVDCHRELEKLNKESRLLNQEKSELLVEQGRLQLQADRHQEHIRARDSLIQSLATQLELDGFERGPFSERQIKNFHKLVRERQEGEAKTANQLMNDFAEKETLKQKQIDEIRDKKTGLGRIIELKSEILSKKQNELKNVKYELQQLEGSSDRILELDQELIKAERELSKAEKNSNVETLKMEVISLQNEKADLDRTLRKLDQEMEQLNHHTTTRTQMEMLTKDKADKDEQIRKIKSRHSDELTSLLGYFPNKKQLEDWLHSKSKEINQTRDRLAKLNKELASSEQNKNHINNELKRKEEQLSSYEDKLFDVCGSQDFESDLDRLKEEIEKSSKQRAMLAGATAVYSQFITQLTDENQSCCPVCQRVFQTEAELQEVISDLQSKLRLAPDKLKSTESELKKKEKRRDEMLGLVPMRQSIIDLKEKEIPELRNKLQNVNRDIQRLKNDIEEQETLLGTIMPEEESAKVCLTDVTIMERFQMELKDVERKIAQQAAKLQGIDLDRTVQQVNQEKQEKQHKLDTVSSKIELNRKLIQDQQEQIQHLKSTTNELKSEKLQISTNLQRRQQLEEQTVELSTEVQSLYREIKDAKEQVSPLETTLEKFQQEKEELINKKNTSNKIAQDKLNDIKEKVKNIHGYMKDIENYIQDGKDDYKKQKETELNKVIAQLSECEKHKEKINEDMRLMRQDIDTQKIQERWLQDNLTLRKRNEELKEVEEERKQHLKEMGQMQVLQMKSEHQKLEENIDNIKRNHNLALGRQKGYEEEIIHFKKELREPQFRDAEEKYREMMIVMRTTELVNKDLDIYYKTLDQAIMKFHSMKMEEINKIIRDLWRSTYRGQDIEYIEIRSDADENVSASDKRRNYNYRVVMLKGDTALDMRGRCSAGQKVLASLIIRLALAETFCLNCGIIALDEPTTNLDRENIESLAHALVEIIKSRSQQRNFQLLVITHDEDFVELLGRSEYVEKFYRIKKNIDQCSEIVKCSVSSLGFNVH
UniProt Q99873: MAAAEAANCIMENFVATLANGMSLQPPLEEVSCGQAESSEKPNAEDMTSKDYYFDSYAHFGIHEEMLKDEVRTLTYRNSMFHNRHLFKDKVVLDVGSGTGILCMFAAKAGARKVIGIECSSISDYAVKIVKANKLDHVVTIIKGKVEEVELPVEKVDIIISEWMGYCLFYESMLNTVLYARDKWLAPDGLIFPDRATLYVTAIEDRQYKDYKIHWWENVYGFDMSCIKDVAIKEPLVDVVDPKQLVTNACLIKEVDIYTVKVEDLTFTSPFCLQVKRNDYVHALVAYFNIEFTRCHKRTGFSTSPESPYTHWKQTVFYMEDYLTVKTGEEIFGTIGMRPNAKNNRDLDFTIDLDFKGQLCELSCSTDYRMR

This assay deals with GFI1-Flag fusion protein (full length GFI1) (UniProt Q99684). Description: affinity purification with mass spectrometry; GFI1-Flag immunoprecipitated (M2 anti-FLAG, agarose) from 293T cells; co-precipitated proteins run on a polyacrylamide gel, in-gel trypsin digestion, LC-MS/MS; scored against CRAPome controls (SAINTexpress).
Turning to “HDAC2 (from UniProt Q92769 1-488) (enzyme)”, the binding result was “binds”. As for CoRest1 (from UniProt Q9UKL0 1-485), the entry is “binds”. As for “HDAC1 (from UniProt Q13547 1-482) (enzyme)”, the entry is “binds”; as for CoRest3 (from UniProt Q9P2K3 1-495), “binds”.

For RAD50 (from UniProt Q92878 1-1312), the binding result is recorded as “binds”. As for “Protein arginine methyltransferase 1 (PRMT1) (from UniProt Q99873 1-371) (enzyme)”, the entry is “binds”; as for “DNA-PK (from UniProt P78527 1-4128) (enzyme)”, “binds”.

Values taken from paper PMC5897347.
